“And” between values parts separate entries of the source, which are not always exact repeats. Identical values can stand only once. “Also recorded” adds a separate entry of the source. At least one peptide structure holds a part that was inferred or is arguable (an end, a ring closure or a residue). Some entries repeat one wording, which the source may state once for all of them. Where no end group is shown, it is not given here.
Experiments:
[1] = test system: T cells from transgenic NOD mice expressing the human DQβ1*0302 gene; assay: Proliferation of T cells from transgenic NOD mice expressing human DQβ1*0302; assay type: cell-based; details: T cells from DQβ1*0302 transgenic NOD mice
Excerpt: Type 1 diabetes is associated with the HLA DQβ1*0302 allele (Nepom and Erlich, Ann. Rev. Immunol. 9:493-525, 1991). Transgenic NOD mice expressing the human DQβ1*0302 gene were constructed. […] Thus, these peptides are recognized by T cells in the context of DQβ1*0302 and are additional peptides suitable for use in the present invention.

[2] = test system: T cells from Type 1 diabetic patients and healthy controls; assay: T cell proliferation assay with GAD 65 peptides (epitope mapping in patients, controls, co-twins); assay type: cell-based, human; details: for recognition by T cells of Type 1 diabetic patients versus controls: patients compared with controls; for T cell proliferative response, number of responders among Type 1 diabetic patients / T cell proliferative response, number of responders among healthy controls: peptides 5 μg/ml; for T cell proliferative response, number of responders among Type 1 diabetic patients: 5-7 Type 1 diabetic patients; for T cell proliferative response, number of responders among healthy controls: 4-5 healthy controls
Experimental: FIG. 2 is a graph illustrating the T cell proliferative responses to peptides corresponding to various regions of GAD 65. Responses to peptides (5 μg/ml) in 5-7 Type 1 diabetic patients (solid bars) and 4-5 healthy controls (hatched bars) are expressed by the number of responders (y-axis). Background counts were normally between 600 and 3000 cpm, while positive wells had to exceed 1500 and 6000 cpm respective to background counts.
A major focus of research into autoimmunity is the identification of dominant epitopes on disease-associated auto-antigens recognized by autoreactive T cells. Immunodominant regions of the antigen GAD 65 have been identified in Type 1 diabetic patients (Lohmann et al., Lancet 343:1607-08, 1994; Atkinson et al., J Clin. Invest. 94:2125-2129, 1994). Within the subject invention, a detailed T cell epitope mapping of immunodominant regions in patients with Type 1 diabetes was performed. Two regions of GAD 65 were selected for decoding, representing the regions associated with the highest frequency of T cell responses in both Type 1 diabetics (amino acid residues 473-555 and 161-243) and control subjects (amino acid residues 161-243) (FIGS. 2 and 4). Nine diabetics who responded to region 473-555 were selected for further study of their response to 18 single peptides covering this region. […] Nearly half the patients tested, but none of the controls, responded to peptide 521-535 (FIG. 2). […] Peptide mapping data were confirmed by establishing T cell clones specific for selected peptides in responsive individuals, for example to peptides 521-535 and 505-519.
Proliferation assays. Proliferation assays were performed in 96 well round bottomed plates (Nunc, Roskilde, Denmark) with 2×10^5 cells per well in a final volume of 20 μl/well. Tetanus toxoid (TT), phytohemagglutinin (PHA, Difco, East Molesey, UK) and a set of immunodominant tetanus toxoid peptides (Reece et al., J Immunol. 115:6175-6184, 1993) were used as positive controls. 16 wells for each peptide pool (GAD- or TT-peptides), 32 negative control wells and 8 wells for both positive controls (PHA and TT) were used. Alternatively, in 7 day assays, 12 wells per peptide, 24 negative control wells and 3 wells per positive control were plated. Cultures were incubated at 37° C., 5% CO2 atmosphere for 4 or 7 days. During the last 6 hours, 0.5 μCi of [^3 ]-thymidine (Amersham, Little Chalfont, UK) per well was added before harvesting and scintillation counting using a betaplate counter (Wallac, Turku, Finland).

[3] = test system: T cell clones from a Type 1 diabetic patient; assay: Proliferation of GAD peptide-specific T cell clones; assay type: cell-based, human; details: peptide 10 μg/ml
[4] = four clones from a Type 1 diabetic patient

Compound | recognition by T cells of Type 1 diabetic patients versus controls [2] | T cell proliferative response, number of responders among Type 1 diabetic patients [2] | also measured
MVFDGKPQHTNVCFW [493-507] |  |  | proliferation of T cells [1]: stimulated to proliferate
CC(C)C[C@H](NC(=O)CNC(=O)[C@@H](NC(=O)[C@H](CO)NC(=O)[C@H](CC(C)C)NC(=O)[C@H](CCC(N)=O)NC(=O)[C@H](CC(N)=O)NC(=O)[C@H](Cc1ccccc1)NC(=O)[C@H](Cc1ccc(O)cc1)NC(=O)[C@H](CCCNC(=N)N)NC(=O)[C@@H]1CCCN1C(=O)[C@H](Cc1c[nH]cn1)NC(=O)CNC(=O)[C@@H](N)[C@@H](C)O)[C@@H](C)O)C(=O)N[C@@H](CC(=O)O)C(=O)O [peptide 173-187] | only recognized by Type 1 diabetic patients | 3/7 | T cell response of non-diabetic identical co-twins of responding Type 1 diabetics [2]: also responded
CSCC[C@H](NC(=O)[C@H](CC(=O)O)NC(=O)[C@H](CC(C)C)NC(=O)CNC(=O)[C@@H](NC(=O)[C@H](CO)NC(=O)[C@H](CC(C)C)NC(=O)[C@H](CCC(N)=O)NC(=O)[C@H](CC(N)=O)NC(=O)[C@H](Cc1ccccc1)NC(=O)[C@H](Cc1ccc(O)cc1)NC(=O)[C@@H](N)CCCNC(=N)N)[C@@H](C)O)C(=O)N[C@H](C(=O)NCC(=O)N[C@@H](CC(C)C)C(=O)O)C(C)C [177-191] | only recognized by Type 1 diabetic patients | 2/7 | 
ADWLTSTANTNMFTY [193-207] | only recognized by Type 1 diabetic patients | 2/7 | 
MHCQTTLKYAIKTGH [peptide 161-175] | exclusively seen in the non-diabetic | none | T cell response of diabetic identical twins ([2]; diabetic identical twins): failed to recognize; T cell response of non-diabetic identical co-twins of responding Type 1 diabetics [2]: did respond; T cell proliferative response, number of responders among healthy controls [2]: two
NTNMFTYEIAPVFVL [201-215] | only recognized by Type 1 diabetic patients | 1/7 | 
RLSKVAPVIKARMME [525-539] | predominantly in diabetic patients | 1/7 | 
ERMSRLSKVAPVIKA [peptide 521-535] |  | Nearly half and 3/7 | T cell response of non-diabetic identical co-twins of responding Type 1 diabetics [2]: did not respond; also recorded: unresponsive; T cell proliferative response, number of responders among healthy controls [2]: none; counts ([3H]-thymidine incorporation) [3, 4]: exceeded 1000 cpm; stimulation index [3, 4]: greater than 2; response of T cell clones to peptide ([3]; four clones): All four clones tested responded
MMEYGTTMVSYQPLG [537-551] | predominantly in diabetic patients | 1/7 | 
IKARMMEYGTTMVSY [533-547] | predominantly in diabetic patients | 3 out of 7 | T cell proliferative response, number of responders among healthy controls [2]: one
FVLLEYVTLKKMREI [213-227] | only recognized by Type 1 diabetic patients | 1/7 | 
